Patent US20100150902A1
Where a chain is given by its changes, count along the chain named. Results are given in words; binding and its absence hold for the method and conditions named. Some results given as binding are weak or reduced against the parent protein; the word gives no strength. Blank lines part the entries; values can stand above or below the binder they belong to.

Chains of the proteins cited; added tags and fusions are not shown. Residues count along the entry.
UniProt P48509, residues 130-221: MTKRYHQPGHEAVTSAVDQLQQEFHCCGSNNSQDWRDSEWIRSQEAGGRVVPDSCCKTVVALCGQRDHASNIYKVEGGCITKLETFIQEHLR

Key:
[1] = target: recombinant extracellular loop EC2 of human CD151 (amino acids 130 to 221, C-terminal Poly-His tail) (human) (UniProt P48509); assay: Western blot, recombinant CD151 EC2 protein, non-reductive conditions, antibody 0.5 µg/ml
[2] = target: recombinant extracellular loop EC2 of human CD151 (amino acids 130 to 221, C-terminal Poly-His tail) (human) (UniProt P48509); assay: Western blot, purified recombinant EC2, non reducing conditions, antibody 0.5 µg/ml

- binding [1]: binds
B1: murine monoclonal antibody 214B2 (hybridoma CNCM I-3919) (antibody, mouse IgG1, V domains shown)
VH: QVQLQQPGSVLVRPGASVKLSCKASGYTFTSSSMHWAKQRPGQGLEWIGEIHPNSGNTNNNEKFKGKATLTVDTSSSTAYVDLSSLSSEDSAVYYCARARSFYYAMDCWGQGTSVTVSS
VL: NIVMTQSPKSMSMSVGERVTLSCKASENVGTYVSWYQQKPEQSPKLLIYGASNRYTGVPDRFTGSGSATDFTLTISSVQAEDLADYHCGQTYSFPYTFGGGTKLEIK

- binding [2]: binds
B2: chimeric antibody c214B2[IgG1] (antibody, V domains shown)
VH: B1 VH
VL: NIVMTQSPKSMSMSVGERVTLSCKASENVGTYVSWYQQKPEQSPKLLIYGASNRYTGVPDRFTGSGSATDFTLTISSVQAEDLADYHCGQTYSFPYTFGGGTKLEIKR

- binding [1]: binds
B3: murine monoclonal antibody 203B6 (hybridoma CNCM I-3920) (antibody, mouse IgG1, V domains shown)
VH: EVKLVESGGGLVQPGGSLKLSCAASGFTFSTYTMSWVRQTPEKRLEWVAYISSGGGTTYYPDTVKGRFTISRDNARNTLYLQMNSLKSEDTAMYYCATPRIGTGFAYWGQGTLVTVSA
VL: DIVLSQSPASLALSLGQRATISCRASASVEYYGTSLMHWYQQKPGQPPKLLIYEASNVESGVPARFSGSGSGTDFSLNIHPVEEDDLAIYFCQQSRKAPYTFGGGTKLEIK

- binding [2]: binds
B4: chimeric antibody c203B6[IgG1] (antibody, V domains shown)
VH: B3 VH
VL: DIVLSQSPASLALSLGQRATISCRASASVEYYGTSLMHWYQQKPGQPPKLLIYEASNVESGVPARFSGSGSGTDFSLNIHPVEEDDLAIYFCQQSRKAPYTFGGGTKLEIKR

- binding [1]: binds
B5: murine monoclonal antibody 211F3 (hybridoma CNCM I-3918) (antibody, mouse IgG1, V domains shown)
VH: B3 VH with G10D, G56V, V64I, R76K, Y80F, A97T, T98S, I101T
VL: B3 VL with S5T, E30D, H38Q
